Earlier results on one compound are cited in article PMC7259466 (bioRxiv, 2020).

In this series the test system is SARS-CoV-2. As to conditions: cited from earlier work.

Turning to `CN(C)CCCN1c2ccccc2CCc2ccc(Cl)cc21` [Clomipramine], the IC50 (in general, the concentration needed to halve the response being measured) was 5.93 µM.
